Small-molecule microarray binding calls

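The test is a small-molecule microarray: each compound is printed twice on a reactive slide, and binding shows as fluorescence of the labelled oligonucleotide after washing. For the PreQ1, TPP and SAM-II riboswitches the laboratory earlier reported (doi:10.1038/s41467-019-09493-3) 1 µM RNA, 2 h, and a rule that included a mean Z-score above 3 (spot signal-to-noise against the whole library), a score well above that on a control array, and duplicate spots agreeing (coefficient of variation under 100). The data file gives only the calls; its cut-offs may differ, and compounds hitting several targets are kept. The calls come from the array alone, and fixing a compound to the slide can hide its binding.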
Key: 1 = hit, 0 = tested without a hit.
The compounds are a random part of those screened.
A dash means that no call is listed here.

Oligonucleotides screened, 5′ to 3′:
PreQ1: PreQ1 riboswitch RNA pseudoknot, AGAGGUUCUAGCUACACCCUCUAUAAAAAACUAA. From B. subtilis. About 24,000 compounds screened, about 170 hits.
SAM-II: SAM-II riboswitch RNA pseudoknot, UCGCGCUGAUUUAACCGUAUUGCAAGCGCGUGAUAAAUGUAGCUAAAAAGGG. About 21,000 compounds screened, about 200 hits.
TPP: TPP riboswitch RNA three-way junction, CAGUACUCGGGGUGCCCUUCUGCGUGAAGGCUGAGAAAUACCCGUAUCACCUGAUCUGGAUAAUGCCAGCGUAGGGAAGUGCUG. About 24,000 compounds screened, about 160 hits.

SMILES	PreQ1	SAM-II	TPP
COc1cc(N2CCC3(CC2)[C@H](O)C[C@@H]3OC)nc(N)n1	0	0	0
CSc1cccc(NC(=O)Nc2ccccc2C(N)=O)c1	0	0	0
CCc1cc(C#N)ccc1NC(=O)NCC(O)c1cc(OC)cc(OC)c1 (configuration not stated)	0	0	0
O=C(CO)N[C@H]1CN(Cc2c(Cl)cncc2Cl)C[C@@H]1C1CC1	0	0	0
CCC(O)c1nc2ccccc2n1CCOc1c(C)cccc1C (configuration not stated)	0	-	0
O=C(OCCNC1=NS(=O)(=O)c2ccccc21)c1ccc(S(=O)(=O)N2CCCCC2)cc1	0	0	0
Cc1noc(C)c1S(=O)(=O)NCc1cc2n(n1)CCNC2	0	0	0
Nc1nnc(SCC(=O)N2c3ccccc3Sc3ccccc32)s1	1	0	1
COCCCNc1oc(-c2ccc(S(=O)(=O)N3CCCC3)cc2)nc1C#N	0	-	0
CC(C)[C@H]1CN(C(=O)CCC(F)(F)F)C[C@@H]1N	0	0	0
Cc1c(Cl)cccc1Nc1nc(-c2cccnc2)cs1	0	0	0
Nc1cc(=O)n2c(n1)SCCC2	0	0	0
CN1CCCC1CC(=O)NCCNc1cccnc1 (configuration not stated)	0	0	0
NCc1cc(Cl)cc2c1OCOC2	0	0	0
CCNc1ccccc1C(=O)OC(C(=O)c1ccccc1)c1ccccc1 (configuration not stated)	0	0	0
O=C(NCCNc1cccnc1)c1ccc(CN2CCCC2)o1	0	0	0
O=C(c1cccc(Nc2c(-c3ccccc3)nc3cnccn23)c1)N1CCCCC1	0	-	0
COc1ccc(-c2nn3c(NC4CCCC4)cc(C)nc3c2C)cc1	0	-	0
Cc1ccccc1Nc1c(-c2ccccn2)nc2cccc(C)n12	0	0	0
CC12CCC3C(CCC4Cc5[nH]c6ccccc6c5CC43C)C1CCC2O (configuration not stated)	0	0	0
Cc1cccc(-n2nc(C(=O)NCCO)nc2-c2ccccc2)c1	0	-	0
O[C@@H]1CN(c2nc(-c3ccccc3)cs2)CC[C@H]1c1ccc2c(c1)OCO2	0	0	0
C=CCOC(=O)C1=C(N)OC(C)=C(C(=O)OC(C)(C)C)C12C(=O)Nc1ccccc12 (configuration not stated)	0	0	0
CCCCCCNc1nc(C)nc2c1sc1nc3c(cc12)COC(C)(C)C3	0	0	0
CN(CCNc1ncnc2onc(-c3ccc(Cl)cc3)c12)C1CCCCC1	0	0	0
Cn1cccc1-c1cc(C(=O)N(CCO)Cc2nccn2C)[nH]n1	0	0	0
CCN(CC)CCn1c(=N)n(CC(O)c2ccc(C)cc2)c2ccccc21 (configuration not stated)	0	0	0
CC(=O)c1sc(Nc2ccc(Cl)c(Cl)c2)nc1C	0	0	0
COc1ccc2c(c1)OCC(CNC(=O)c1ccc3c(c1)ncn3CCO)C2 (configuration not stated)	0	0	0
Nc1nonc1-c1noc(COc2ccc(Cl)cc2Br)n1	0	0	0
O=C(CNc1ccc(C(F)(F)F)cc1[N+](=O)[O-])Nc1cccc(SC(F)(F)F)c1	0	0	0
Cc1ccccc1-n1nc(CO)c(C(=O)NCc2cccs2)n1	0	-	0
Cc1ccc(-c2nc(CNC(=O)C3COCCN3)[nH]c2-c2ccccn2)cc1 (configuration not stated)	0	0	0
C=CCC1(CO)CCCN(C(=O)CN(C)Cc2ccc(F)cc2)C1 (configuration not stated)	0	0	0
CCCCOCC(=O)N1CCCC(Nc2ccc(OC)cc2)C1 (configuration not stated)	0	0	0
O=C(O)C1(Oc2ccc(CN3CCNCC3)cc2)CCSCC1	0	0	0
NCC1Cc2cc(F)cc(-c3cc(C(=O)N4CCCC4)ccn3)c2O1 (configuration not stated)	0	0	0
Clc1ccc(-c2noc(-c3cccnc3NCC3CCCO3)n2)cc1 (configuration not stated)	0	-	0
COc1ccc([C@H]2CN(C(=O)Cc3ccc(-n4cnnn4)cc3)C[C@@H]2N)cc1	0	0	0
CC1=CC(C)(C)Nc2ccc(OCC(=O)N3c4ccccc4CCc4ccccc43)cc21	0	0	0

Once more, the final 5:

SMILES,PreQ1,SAM-II,TPP
O=C(O)C1(Oc2ccc(CN3CCNCC3)cc2)CCSCC1,0,0,0
NCC1Cc2cc(F)cc(-c3cc(C(=O)N4CCCC4)ccn3)c2O1 (configuration not stated),0,0,0
Clc1ccc(-c2noc(-c3cccnc3NCC3CCCO3)n2)cc1 (configuration not stated),0,-,0
COc1ccc([C@H]2CN(C(=O)Cc3ccc(-n4cnnn4)cc3)C[C@@H]2N)cc1,0,0,0
CC1=CC(C)(C)Nc2ccc(OCC(=O)N3c4ccccc4CCc4ccccc43)cc21,0,0,0

Source: the ROBIN nucleic acid binder screens (doi:10.1002/anie.202211358).